Further values from the same series stand in other lists.
Tests used:
Type in all cases: functional, cell-based
Parameters in all cases: recommended concentration 100 nM
[1] = molecular target: Centromere-associated protein E (Homo sapiens) (UniProt Q02224); assay: Affinity Phenotypic Cellular interaction: (Cell-growth inhibition assays (growth inhibitory effect colon cancer cell line J82)) EUB0000734a CENPE; details: Affinity Phenotypic Cellular Source Knowledge https://pubmed.ncbi.nlm.nih.gov/20167803/
[2] = molecular target: Centromere-associated protein E (Homo sapiens) (UniProt Q02224); assay: Affinity Phenotypic Cellular interaction: (Cell-growth inhibition assays (growth inhibitory effect colon cancer cell line FaDu)) EUB0000734a CENPE; details: Affinity Phenotypic Cellular Source Knowledge https://pubmed.ncbi.nlm.nih.gov/20167803/
[3] = molecular target: Centromere-associated protein E (Homo sapiens) (UniProt Q02224); assay: Affinity Phenotypic Cellular interaction: (Cell-growth inhibition assays (growth inhibitory effect colon cancer cell line KATOIII)) EUB0000734a CENPE; details: KATO III, Affinity Phenotypic Cellular Source Knowledge https://pubmed.ncbi.nlm.nih.gov/20167803/
[4] = molecular target: Centromere-associated protein E (Homo sapiens) (UniProt Q02224); assay: Affinity Phenotypic Cellular interaction: (Cell-growth inhibition assays (growth inhibitory effect colon cancer cell line SNU-16)) EUB0000734a CENPE; details: Affinity Phenotypic Cellular Source Knowledge https://pubmed.ncbi.nlm.nih.gov/20167803/
[5] = molecular target: Centromere-associated protein E (Homo sapiens) (UniProt Q02224); assay: Affinity Phenotypic Cellular interaction: (Cell-growth inhibition assays (growth inhibitory effect colon cancer cell line RPMI 8226)) EUB0000734a CENPE; details: Affinity Phenotypic Cellular Source Knowledge https://pubmed.ncbi.nlm.nih.gov/20167803/
[6] = molecular target: Centromere-associated protein E (Homo sapiens) (UniProt Q02224); assay: Affinity Phenotypic Cellular interaction: (Cell-growth inhibition assays (growth inhibitory effect colon cancer cell line SW-962)) EUB0000734a CENPE; details: Affinity Phenotypic Cellular Source Knowledge https://pubmed.ncbi.nlm.nih.gov/20167803/
[7] = molecular target: Centromere-associated protein E (Homo sapiens) (UniProt Q02224); assay: Affinity Phenotypic Cellular interaction: (Cell-growth inhibition assays (growth inhibitory effect colon cancer cell line BFTC-905)) EUB0000734a CENPE; details: Affinity Phenotypic Cellular Source Knowledge https://pubmed.ncbi.nlm.nih.gov/20167803/
[8] = molecular target: Centromere-associated protein E (Homo sapiens) (UniProt Q02224); assay: Affinity Phenotypic Cellular interaction: (Cell-growth inhibition assays (growth inhibitory effect colon cancer cell line NCI-H322)) EUB0000734a CENPE; details: Affinity Phenotypic Cellular Source Knowledge https://pubmed.ncbi.nlm.nih.gov/20167803/
[9] = molecular target: Centromere-associated protein E (Homo sapiens) (UniProt Q02224); assay: Affinity Phenotypic Cellular interaction: (Cell-growth inhibition assays (growth inhibitory effect colon cancer cell line COLO-704)) EUB0000734a CENPE; details: Affinity Phenotypic Cellular Source Knowledge https://pubmed.ncbi.nlm.nih.gov/20167803/
[10] = molecular target: Centromere-associated protein E (Homo sapiens) (UniProt Q02224); assay: Affinity Phenotypic Cellular interaction: (Cell-growth inhibition assays (growth inhibitory effect colon cancer cell line 647-V)) EUB0000734a CENPE; details: Affinity Phenotypic Cellular Source Knowledge https://pubmed.ncbi.nlm.nih.gov/20167803/
[11] = molecular target: Centromere-associated protein E (Homo sapiens) (UniProt Q02224); assay: Affinity Phenotypic Cellular interaction: (Cell-growth inhibition assays (growth inhibitory effect colon cancer cell line MES-SA)) EUB0000734a CENPE; details: Affinity Phenotypic Cellular Source Knowledge https://pubmed.ncbi.nlm.nih.gov/20167803/
[12] = molecular target: Centromere-associated protein E (Homo sapiens) (UniProt Q02224); assay: Affinity Phenotypic Cellular interaction: (Cell-growth inhibition assays (growth inhibitory effect colon cancer cell line U20S)) EUB0000734a CENPE; details: U2OS, Affinity Phenotypic Cellular Source Knowledge https://pubmed.ncbi.nlm.nih.gov/20167803/
[13] = molecular target: Centromere-associated protein E (Homo sapiens) (UniProt Q02224); assay: Affinity Phenotypic Cellular interaction: (Cell-growth inhibition assays (growth inhibitory effect colon cancer cell line SW1783)) EUB0000734a CENPE; details: Affinity Phenotypic Cellular Source Knowledge https://pubmed.ncbi.nlm.nih.gov/20167803/
[14] = molecular target: Centromere-associated protein E (Homo sapiens) (UniProt Q02224); assay: Affinity Phenotypic Cellular interaction: (Cell-growth inhibition assays (growth inhibitory effect colon cancer cell line NCI-H209)) EUB0000734a CENPE; details: Affinity Phenotypic Cellular Source Knowledge https://pubmed.ncbi.nlm.nih.gov/20167803/
[15] = molecular target: Centromere-associated protein E (Homo sapiens) (UniProt Q02224); assay: Affinity Phenotypic Cellular interaction: (Cell-growth inhibition assays (growth inhibitory effect colon cancer cell line MX-1)) EUB0000734a CENPE; details: MX1, Affinity Phenotypic Cellular Source Knowledge https://pubmed.ncbi.nlm.nih.gov/20167803/
[16] = molecular target: Centromere-associated protein E (Homo sapiens) (UniProt Q02224); assay: Affinity Phenotypic Cellular interaction: (Cell-growth inhibition assays (growth inhibitory effect colon cancer cell line THP-1)) EUB0000734a CENPE; details: Affinity Phenotypic Cellular Source Knowledge https://pubmed.ncbi.nlm.nih.gov/20167803/
[17] = molecular target: Centromere-associated protein E (Homo sapiens) (UniProt Q02224); assay: Affinity Phenotypic Cellular interaction: (Cell-growth inhibition assays (growth inhibitory effect colon cancer cell line IGROV1)) EUB0000734a CENPE; details: IGROV-1, Affinity Phenotypic Cellular Source Knowledge https://pubmed.ncbi.nlm.nih.gov/20167803/
[18] = molecular target: Centromere-associated protein E (Homo sapiens) (UniProt Q02224); assay: Affinity Phenotypic Cellular interaction: (Cell-growth inhibition assays (growth inhibitory effect colon cancer cell line Saos-2)) EUB0000734a CENPE; details: Affinity Phenotypic Cellular Source Knowledge https://pubmed.ncbi.nlm.nih.gov/20167803/
[19] = molecular target: Centromere-associated protein E (Homo sapiens) (UniProt Q02224); assay: Affinity Phenotypic Cellular interaction: (Cell-growth inhibition assays (growth inhibitory effect colon cancer cell line D283Med)) EUB0000734a CENPE; details: D283 Med, Affinity Phenotypic Cellular Source Knowledge https://pubmed.ncbi.nlm.nih.gov/20167803/
[20] = molecular target: Centromere-associated protein E (Homo sapiens) (UniProt Q02224); assay: Affinity Phenotypic Cellular interaction: (Cell-growth inhibition assays (growth inhibitory effect colon cancer cell line COLO 320HSR)) EUB0000734a CENPE; details: Affinity Phenotypic Cellular Source Knowledge https://pubmed.ncbi.nlm.nih.gov/20167803/
[21] = molecular target: Centromere-associated protein E (Homo sapiens) (UniProt Q02224); assay: Affinity Phenotypic Cellular interaction: (Cell-growth inhibition assays (growth inhibitory effect colon cancer cell line SJRH30)) EUB0000734a CENPE; details: Affinity Phenotypic Cellular Source Knowledge https://pubmed.ncbi.nlm.nih.gov/20167803/
[22] = molecular target: Centromere-associated protein E (Homo sapiens) (UniProt Q02224); assay: Affinity Phenotypic Cellular interaction: (Cell-growth inhibition assays (growth inhibitory effect colon cancer cell line UACC-62)) EUB0000734a CENPE; details: Affinity Phenotypic Cellular Source Knowledge https://pubmed.ncbi.nlm.nih.gov/20167803/
[23] = molecular target: Centromere-associated protein E (Homo sapiens) (UniProt Q02224); assay: Affinity Phenotypic Cellular interaction: (Cell-growth inhibition assays (growth inhibitory effect colon cancer cell line SK-OV-3)) EUB0000734a CENPE; details: Affinity Phenotypic Cellular Source Knowledge https://pubmed.ncbi.nlm.nih.gov/20167803/
[24] = molecular target: Centromere-associated protein E (Homo sapiens) (UniProt Q02224); assay: Affinity Phenotypic Cellular interaction: (Cell-growth inhibition assays (growth inhibitory effect colon cancer cell line A204)) EUB0000734a CENPE; details: Affinity Phenotypic Cellular Source Knowledge https://pubmed.ncbi.nlm.nih.gov/20167803/
[25] = molecular target: Centromere-associated protein E (Homo sapiens) (UniProt Q02224); assay: Affinity Phenotypic Cellular interaction: (Cell-growth inhibition assays (growth inhibitory effect colon cancer cell line OVCAR-8)) EUB0000734a CENPE; details: Affinity Phenotypic Cellular Source Knowledge https://pubmed.ncbi.nlm.nih.gov/20167803/
[26] = molecular target: Centromere-associated protein E (Homo sapiens) (UniProt Q02224); assay: Affinity Phenotypic Cellular interaction: (Cell-growth inhibition assays (growth inhibitory effect colon cancer cell line Malme-3M)) EUB0000734a CENPE; details: Affinity Phenotypic Cellular Source Knowledge https://pubmed.ncbi.nlm.nih.gov/20167803/
[27] = molecular target: Centromere-associated protein E (Homo sapiens) (UniProt Q02224); assay: Affinity Phenotypic Cellular interaction: (Cell-growth inhibition assays (growth inhibitory effect colon cancer cell line MC-IXC)) EUB0000734a CENPE; details: Affinity Phenotypic Cellular Source Knowledge https://pubmed.ncbi.nlm.nih.gov/20167803/
[28] = molecular target: Centromere-associated protein E (Homo sapiens) (UniProt Q02224); assay: Affinity Phenotypic Cellular interaction: (Cell-growth inhibition assays (growth inhibitory effect colon cancer cell line HT-1376)) EUB0000734a CENPE; details: Affinity Phenotypic Cellular Source Knowledge https://pubmed.ncbi.nlm.nih.gov/20167803/
[29] = molecular target: Centromere-associated protein E (Homo sapiens) (UniProt Q02224); assay: Affinity Phenotypic Cellular interaction: (Cell-growth inhibition assays (growth inhibitory effect colon cancer cell line BC-2)) EUB0000734a CENPE; details: Affinity Phenotypic Cellular Source Knowledge https://pubmed.ncbi.nlm.nih.gov/20167803/
[30] = molecular target: Centromere-associated protein E (Homo sapiens) (UniProt Q02224); assay: Affinity Phenotypic Cellular interaction: (Cell-growth inhibition assays (growth inhibitory effect colon cancer cell line ARH-77)) EUB0000734a CENPE; details: Affinity Phenotypic Cellular Source Knowledge https://pubmed.ncbi.nlm.nih.gov/20167803/
[31] = molecular target: Centromere-associated protein E (Homo sapiens) (UniProt Q02224); assay: Affinity Phenotypic Cellular interaction: (Cell-growth inhibition assays (growth inhibitory effect colon cancer cell line SW403)) EUB0000734a CENPE; details: SW-403, Affinity Phenotypic Cellular Source Knowledge https://pubmed.ncbi.nlm.nih.gov/20167803/
[32] = molecular target: Centromere-associated protein E (Homo sapiens) (UniProt Q02224); assay: Affinity Phenotypic Cellular interaction: (Cell-growth inhibition assays (growth inhibitory effect colon cancer cell line SK-UT-1)) EUB0000734a CENPE; details: Affinity Phenotypic Cellular Source Knowledge https://pubmed.ncbi.nlm.nih.gov/20167803/
[33] = molecular target: Centromere-associated protein E (Homo sapiens) (UniProt Q02224); assay: Affinity Phenotypic Cellular interaction: (Cell-growth inhibition assays (growth inhibitory effect colon cancer cell line SCC-9)) EUB0000734a CENPE; details: Affinity Phenotypic Cellular Source Knowledge https://pubmed.ncbi.nlm.nih.gov/20167803/
[34] = molecular target: Centromere-associated protein E (Homo sapiens) (UniProt Q02224); assay: Affinity Phenotypic Cellular interaction: (Cell-growth inhibition assays (growth inhibitory effect colon cancer cell line SCC-15)) EUB0000734a CENPE; details: Affinity Phenotypic Cellular Source Knowledge https://pubmed.ncbi.nlm.nih.gov/20167803/
[35] = molecular target: Centromere-associated protein E (Homo sapiens) (UniProt Q02224); assay: Affinity Phenotypic Cellular interaction: (Cell-growth inhibition assays (growth inhibitory effect colon cancer cell line NCI-H520)) EUB0000734a CENPE; details: Affinity Phenotypic Cellular Source Knowledge https://pubmed.ncbi.nlm.nih.gov/20167803/
[36] = molecular target: Centromere-associated protein E (Homo sapiens) (UniProt Q02224); assay: Affinity Phenotypic Cellular interaction: (Cell-growth inhibition assays (growth inhibitory effect colon cancer cell line BT-474)) EUB0000734a CENPE; details: Affinity Phenotypic Cellular Source Knowledge https://pubmed.ncbi.nlm.nih.gov/20167803/
[37] = molecular target: Centromere-associated protein E (Homo sapiens) (UniProt Q02224); assay: Affinity Phenotypic Cellular interaction: (Cell-growth inhibition assays (growth inhibitory effect colon cancer cell line NCI-H187)) EUB0000734a CENPE; details: Affinity Phenotypic Cellular Source Knowledge https://pubmed.ncbi.nlm.nih.gov/20167803/

By UniProt entry, the sequences of proteins in these tests, tags left out. Where a name states a change or a piece, a line headed by the entry shows the natural chain unless it says otherwise.
UniProt Q02224: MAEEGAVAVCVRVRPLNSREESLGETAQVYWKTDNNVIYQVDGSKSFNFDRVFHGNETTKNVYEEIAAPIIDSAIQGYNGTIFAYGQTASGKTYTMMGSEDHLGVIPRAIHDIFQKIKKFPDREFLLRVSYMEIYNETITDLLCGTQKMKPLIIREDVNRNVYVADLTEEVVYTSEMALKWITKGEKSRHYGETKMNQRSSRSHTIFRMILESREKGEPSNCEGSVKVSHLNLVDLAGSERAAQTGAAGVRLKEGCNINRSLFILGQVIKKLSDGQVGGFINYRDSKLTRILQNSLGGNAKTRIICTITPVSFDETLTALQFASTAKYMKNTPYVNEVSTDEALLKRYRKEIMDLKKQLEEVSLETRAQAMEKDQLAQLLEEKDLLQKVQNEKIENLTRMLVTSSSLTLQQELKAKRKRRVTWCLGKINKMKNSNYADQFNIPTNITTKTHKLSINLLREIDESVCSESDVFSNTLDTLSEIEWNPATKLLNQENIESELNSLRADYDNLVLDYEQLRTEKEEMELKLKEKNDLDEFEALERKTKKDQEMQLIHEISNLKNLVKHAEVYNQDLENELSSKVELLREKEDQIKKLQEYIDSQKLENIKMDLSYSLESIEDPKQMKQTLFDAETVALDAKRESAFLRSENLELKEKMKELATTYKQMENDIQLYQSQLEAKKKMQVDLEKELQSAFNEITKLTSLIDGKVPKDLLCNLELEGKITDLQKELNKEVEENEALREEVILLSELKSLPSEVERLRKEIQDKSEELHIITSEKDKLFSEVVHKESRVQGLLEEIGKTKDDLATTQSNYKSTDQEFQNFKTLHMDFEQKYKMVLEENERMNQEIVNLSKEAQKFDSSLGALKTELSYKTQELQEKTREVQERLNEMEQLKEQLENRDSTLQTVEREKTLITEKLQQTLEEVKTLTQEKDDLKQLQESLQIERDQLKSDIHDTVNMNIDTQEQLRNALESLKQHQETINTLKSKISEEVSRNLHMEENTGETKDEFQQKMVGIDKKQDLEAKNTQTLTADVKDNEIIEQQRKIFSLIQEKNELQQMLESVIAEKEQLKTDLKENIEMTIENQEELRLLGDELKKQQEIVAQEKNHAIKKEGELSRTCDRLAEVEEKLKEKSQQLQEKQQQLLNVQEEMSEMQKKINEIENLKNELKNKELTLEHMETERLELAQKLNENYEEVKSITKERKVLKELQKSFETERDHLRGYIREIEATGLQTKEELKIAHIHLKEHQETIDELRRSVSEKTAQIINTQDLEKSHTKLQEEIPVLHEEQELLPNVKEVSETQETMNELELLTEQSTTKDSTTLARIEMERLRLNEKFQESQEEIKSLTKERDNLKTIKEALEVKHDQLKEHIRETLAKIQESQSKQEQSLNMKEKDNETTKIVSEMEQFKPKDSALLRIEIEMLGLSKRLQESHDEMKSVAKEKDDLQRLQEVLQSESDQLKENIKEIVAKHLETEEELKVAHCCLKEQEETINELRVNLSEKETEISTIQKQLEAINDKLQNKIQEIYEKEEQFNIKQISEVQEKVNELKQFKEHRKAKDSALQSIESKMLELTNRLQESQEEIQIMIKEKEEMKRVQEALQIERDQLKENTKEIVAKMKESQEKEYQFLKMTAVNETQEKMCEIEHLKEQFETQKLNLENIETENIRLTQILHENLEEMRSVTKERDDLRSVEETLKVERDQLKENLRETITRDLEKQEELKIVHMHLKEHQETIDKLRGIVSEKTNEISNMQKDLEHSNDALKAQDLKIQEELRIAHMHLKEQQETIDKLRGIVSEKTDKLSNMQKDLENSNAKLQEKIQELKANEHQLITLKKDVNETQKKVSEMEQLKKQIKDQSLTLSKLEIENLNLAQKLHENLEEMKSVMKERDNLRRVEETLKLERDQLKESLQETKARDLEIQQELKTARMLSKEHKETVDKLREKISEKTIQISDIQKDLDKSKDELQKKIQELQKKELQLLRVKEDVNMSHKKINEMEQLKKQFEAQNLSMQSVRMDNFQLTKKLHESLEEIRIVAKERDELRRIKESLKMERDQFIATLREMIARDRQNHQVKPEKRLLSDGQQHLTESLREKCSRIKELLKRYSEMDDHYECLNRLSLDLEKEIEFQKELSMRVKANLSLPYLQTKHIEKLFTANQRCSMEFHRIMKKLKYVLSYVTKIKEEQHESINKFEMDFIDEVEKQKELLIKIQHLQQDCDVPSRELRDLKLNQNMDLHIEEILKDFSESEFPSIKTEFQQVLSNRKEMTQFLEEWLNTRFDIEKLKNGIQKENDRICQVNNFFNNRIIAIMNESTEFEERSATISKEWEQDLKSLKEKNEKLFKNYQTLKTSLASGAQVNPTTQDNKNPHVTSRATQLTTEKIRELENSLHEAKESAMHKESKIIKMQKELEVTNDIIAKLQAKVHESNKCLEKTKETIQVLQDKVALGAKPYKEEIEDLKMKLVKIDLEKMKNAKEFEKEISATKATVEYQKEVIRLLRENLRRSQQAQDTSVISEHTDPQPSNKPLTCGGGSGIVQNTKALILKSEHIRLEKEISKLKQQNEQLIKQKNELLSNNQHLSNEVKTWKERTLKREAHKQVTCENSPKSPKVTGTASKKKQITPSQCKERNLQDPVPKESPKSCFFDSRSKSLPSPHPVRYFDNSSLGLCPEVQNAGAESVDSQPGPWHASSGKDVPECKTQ

CC(C)Oc1ccc(C(=O)N[C@H](CNC(=O)CN(C)C)Cc2ccc(-c3cn4cccc([C@H](C)O)c4n3)cc2)cc1Cl
GIC50 [1]: 114 nM | GIC50 [2]: 32 nM | GIC50 [3]: 79 nM | GIC50 [4]: 18 nM | GIC50 [5]: 27 nM | GIC50 [6]: 21 nM | GIC50 [7]: 30 nM | GIC50 [8]: 25 nM | GIC50 [9]: 69 nM | GIC50 [10]: 72 nM | GIC50 [11]: 65 nM | GIC50 [12]: 45 nM | GIC50 [13]: 34 nM | GIC50 [14]: 20 nM | GIC50 [15]: 30 nM | GIC50 [16]: 12 nM | GIC50 [17]: 31 nM | GIC50 [18]: 41 nM | GIC50 [19]: 28 nM | GIC50 [20]: 153 nM | GIC50 [21]: 26 nM | GIC50 [22]: 25 nM | GIC50 [23]: 26 nM | GIC50 [24]: 18 nM | GIC50 [25]: 50 nM | GIC50 [26]: 51 nM | GIC50 [27]: 27 nM | GIC50 [28]: 33 nM | GIC50 [29]: 45 nM | GIC50 [30]: 34 nM | GIC50 [31]: 24 nM | GIC50 [32]: 23 nM | GIC50 [33]: 24 nM | GIC50 [34]: 63 nM | GIC50 [35]: 34 nM | GIC50 [36]: 110 nM | GIC50 [37]: 68 nM
